Read-outs that look alike come from different tables or passages of the source.
Biological target: native GABAA receptors in hippocampal neurons
Test: GABA-evoked currents in cultured hippocampal neurons, perforated patch
Format: cell-based, rat
Details: read-out: GABA EC50, solvent, Hippocampus neurons

SMILES: NCCCC(=O)O [GABA]
- EC50 (5 mM penicillin present, solvent): 1.8 ± 0.2 µM
- EC50 (solvent (0.1% DMSO)): 9.4 ± 1 µM
